PubChem BioAssay AID1259297, Sanger Institute – 2017
Test: 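Kinases whose loss kills cells on their own or with targeted drugs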 (primary screen). Cells: human RCM1 colorectal cancer cell line. Knock-down reagent: siRNA pool against human genes. Conditions: separate arms: DMSO vehicle, or one anchor drug at a mild dose: BYL719 1 µM, cetuximab 5 µg/ml, trametinib 10 nM. Measurement: 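Viability per well relative to a non-targeting pool, mean of replicates; robust z-score for knock-down alone; synergy score with BYL719, cetuximab or trametinib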. Direction: viability z-score, knock-down alone: higher = more viable cells than non-targeting controls; viability, knock-down alone (DMSO): higher = more viable cells. Call rule: 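Called essential if knock-down without drug gives a viability robust z-score under -3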. Meaning of the calls: active = essential when knocked down alone; inactive = no clear loss of viability alone.
The deposit covers 794 reagents; below is an unselected part. 13 of them (1.6%) count as active. 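Calls reflect knock-down without drug only; drug synergy is judged separately, with scores above 0.15 counted as synergy.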 A number with no mark means an inactive call. Viability is capped at 1. Not all columns of the deposit are shown. Reagent sequences are not shown. Not given: the amount of reagent, the time to read-out.

The opening 4 entries, to show the layout:
| Target gene | viability z-score, knock-down alone | viability, knock-down alone (DMSO) (fraction of control) |
| --- | --- | --- |
| NEK2 | -0.0594 | 0.911 |
| PFKFB2 | 0.394 | 0.953 |
| YES1 | -1.09 | 0.815 |
| DDR1 | 0.9 | 1 |

The listing, from the start:
| Target gene | viability z-score, knock-down alone | viability, knock-down alone (DMSO) (fraction of control) |
| --- | --- | --- |
| NEK2 | -0.0594 | 0.911 |
| PFKFB2 | 0.394 | 0.953 |
| YES1 | -1.09 | 0.815 |
| DDR1 | 0.9 | 1 |
| NME4 | -1.32 | 0.794 |
| PIM1 | -0.788 | 0.843 |
| CASP8 | 0.9 | 1 |
| PRAG1 | -1.88 | 0.742 |
| LRRK2 | 0.632 | 0.975 |
| AXIN2 | 0.78 | 0.989 |
| CDK3 | 0.9 | 1 |
| CDKN1B | 0.548 | 0.967 |
| DCLK2 | -0.445 | 0.875 |
| MAST4 | 0.0889 | 0.925 |
| IP6K3 | -0.705 | 0.851 |
| MYO3B | 0.542 | 0.967 |
| PASK | 0.9 | 1 |
| SRPK1 | 0.0788 | 0.924 |
| MAPKAPK2 | 0.366 | 0.95 |
| MAP4K3 | -0.0931 | 0.908 |
| GRK5 | 0.9 | 1 |
| PKN3 | 0.9 | 1 |
| BRDT | 0.9 | 1 |
| PDXK | 0.9 | 1 |
| MAP3K21 | -0.624 | 0.858 |
| NUAK2 | -0.31 | 0.888 |
| EPHA3 | -1.68 | 0.76 |
| PFKFB3 | -1.53 | 0.775 |
| ITPKC | -0.382 | 0.881 |
| CDC42BPG | 0.743 | 0.985 |
| IP6K2 | -1.61 | 0.767 |
| EPHA10 | 0.168 | 0.932 |
| LTK | 0.306 | 0.945 |
| GATA3 | 0.386 | 0.952 |
| TRPM7 | -0.984 | 0.825 |
| ALPK2 | 0.691 | 0.981 |
| PAK1 | -2.38 | 0.695 |
| PIK3CB | 0.148 | 0.93 |
| RIPK1 | -0.0584 | 0.911 |
| SBK1 | 0.9 | 1 |
| STK39 | -3.3 (active) | 0.61 |
